Article PMC8357417, “CTP and parS coordinate ParB partition complex dynamics and ParA-ATPase activation for ParABS-mediated DNA partitioning” (eLife, 2021)
The exact form of at least one protein or probe is not confirmed. At least one verdict was read from the data and is not stated in words by the source. Tags and fusion partners may be left off the protein sequences shown.

Molecular target: T1, ParBF (F plasmid (Escherichia coli)) (UniProt P62558)
T1 sequence (looked up, limits assumed): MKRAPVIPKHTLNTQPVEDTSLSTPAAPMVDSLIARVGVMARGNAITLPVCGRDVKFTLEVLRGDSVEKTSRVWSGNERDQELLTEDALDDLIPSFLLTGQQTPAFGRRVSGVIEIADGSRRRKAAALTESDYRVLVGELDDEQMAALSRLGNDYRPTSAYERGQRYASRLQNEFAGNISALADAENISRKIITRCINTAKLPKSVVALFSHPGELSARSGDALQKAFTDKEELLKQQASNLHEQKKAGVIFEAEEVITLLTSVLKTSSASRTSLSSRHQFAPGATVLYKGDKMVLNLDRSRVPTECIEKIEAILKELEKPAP
Assay: EMSA
Conditions: 0.1 nM DNA, KD only in figure; EMSA: 0.1 nM 32P-DNA, 4-12% acrylamide gel, 1x TBE + 5 mM Mg acetate, 4 C, 150 V, 1 h; recombinant protein; protein details: C-terminal His6; label: 32P (EMSA)

“AGTCTGGGACCACGGTCCCACTCG (double strand) [24 bp parSF (sopC consensus)]”: binds.
